Experimental data taken from article PMC4499153.
Residue numbers refer to the chain shown, from its start. Results are given in words; binding and its absence hold for the method and conditions named. Binding seen in cells or lysates may run through a third protein. Some results given as binding are weak or reduced against the parent protein; the word gives no strength. For part of these data: Tags and fused reporters may be left off the sequences shown. Blank lines part the entries; values can stand above or below the molecule they belong to.

Chains of the proteins cited; added tags and fusions are not shown.
UniProt P50750: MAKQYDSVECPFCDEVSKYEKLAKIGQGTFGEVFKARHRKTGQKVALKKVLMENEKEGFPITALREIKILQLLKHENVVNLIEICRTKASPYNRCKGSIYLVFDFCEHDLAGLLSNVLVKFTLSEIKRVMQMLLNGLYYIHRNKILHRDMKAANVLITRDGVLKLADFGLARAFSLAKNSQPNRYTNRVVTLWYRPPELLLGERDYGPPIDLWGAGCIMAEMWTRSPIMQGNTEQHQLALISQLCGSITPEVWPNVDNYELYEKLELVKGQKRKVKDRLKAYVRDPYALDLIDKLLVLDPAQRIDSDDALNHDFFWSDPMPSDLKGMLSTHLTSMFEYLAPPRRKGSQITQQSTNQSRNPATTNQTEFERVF
UniProt O94992: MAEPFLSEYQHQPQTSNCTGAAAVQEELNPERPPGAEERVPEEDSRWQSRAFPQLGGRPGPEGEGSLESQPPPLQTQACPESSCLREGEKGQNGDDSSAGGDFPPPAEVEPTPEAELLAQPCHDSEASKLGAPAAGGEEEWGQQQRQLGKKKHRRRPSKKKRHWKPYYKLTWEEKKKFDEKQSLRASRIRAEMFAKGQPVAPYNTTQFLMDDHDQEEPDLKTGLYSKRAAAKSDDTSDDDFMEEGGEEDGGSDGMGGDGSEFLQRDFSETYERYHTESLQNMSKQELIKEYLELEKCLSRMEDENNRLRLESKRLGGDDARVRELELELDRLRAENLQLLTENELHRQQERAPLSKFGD
UniProt P04608: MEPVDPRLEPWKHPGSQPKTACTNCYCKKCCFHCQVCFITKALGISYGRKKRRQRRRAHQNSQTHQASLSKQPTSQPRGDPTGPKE
UniProt O00472: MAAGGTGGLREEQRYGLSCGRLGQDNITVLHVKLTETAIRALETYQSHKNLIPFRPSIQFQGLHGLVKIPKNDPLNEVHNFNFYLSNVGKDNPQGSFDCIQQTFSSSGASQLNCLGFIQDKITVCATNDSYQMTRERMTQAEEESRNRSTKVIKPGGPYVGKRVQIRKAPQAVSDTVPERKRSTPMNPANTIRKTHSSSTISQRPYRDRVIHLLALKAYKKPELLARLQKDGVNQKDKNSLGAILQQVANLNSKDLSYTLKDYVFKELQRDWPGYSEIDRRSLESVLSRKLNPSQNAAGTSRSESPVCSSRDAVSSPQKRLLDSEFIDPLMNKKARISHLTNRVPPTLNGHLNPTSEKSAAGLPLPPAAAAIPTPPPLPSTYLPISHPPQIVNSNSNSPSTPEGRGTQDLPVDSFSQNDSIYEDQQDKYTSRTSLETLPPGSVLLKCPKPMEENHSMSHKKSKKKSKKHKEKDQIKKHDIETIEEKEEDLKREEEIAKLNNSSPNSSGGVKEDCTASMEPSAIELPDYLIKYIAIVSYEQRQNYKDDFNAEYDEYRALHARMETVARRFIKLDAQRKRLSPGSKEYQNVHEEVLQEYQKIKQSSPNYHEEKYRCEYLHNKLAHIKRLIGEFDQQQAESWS

Tests used:
[1] = target: Flag-tagged CDK9, transfected in HeLa cells (human) (UniProt P50750); assay: co-IP
[2] = target: T1, FLAG-tagged AFF1, full length (aa 1-1210) (UniProt P51825); assay: co-IP; anti-Flag immunoprecipitation of Flag-tagged AFF1 or AFF4 (WT, truncations, point mutants) from nuclear extracts of transfected HeLa cells; western blotting for endogenous proteins (Figures 1C,D, 3B,D, 4A)
T1 sequence: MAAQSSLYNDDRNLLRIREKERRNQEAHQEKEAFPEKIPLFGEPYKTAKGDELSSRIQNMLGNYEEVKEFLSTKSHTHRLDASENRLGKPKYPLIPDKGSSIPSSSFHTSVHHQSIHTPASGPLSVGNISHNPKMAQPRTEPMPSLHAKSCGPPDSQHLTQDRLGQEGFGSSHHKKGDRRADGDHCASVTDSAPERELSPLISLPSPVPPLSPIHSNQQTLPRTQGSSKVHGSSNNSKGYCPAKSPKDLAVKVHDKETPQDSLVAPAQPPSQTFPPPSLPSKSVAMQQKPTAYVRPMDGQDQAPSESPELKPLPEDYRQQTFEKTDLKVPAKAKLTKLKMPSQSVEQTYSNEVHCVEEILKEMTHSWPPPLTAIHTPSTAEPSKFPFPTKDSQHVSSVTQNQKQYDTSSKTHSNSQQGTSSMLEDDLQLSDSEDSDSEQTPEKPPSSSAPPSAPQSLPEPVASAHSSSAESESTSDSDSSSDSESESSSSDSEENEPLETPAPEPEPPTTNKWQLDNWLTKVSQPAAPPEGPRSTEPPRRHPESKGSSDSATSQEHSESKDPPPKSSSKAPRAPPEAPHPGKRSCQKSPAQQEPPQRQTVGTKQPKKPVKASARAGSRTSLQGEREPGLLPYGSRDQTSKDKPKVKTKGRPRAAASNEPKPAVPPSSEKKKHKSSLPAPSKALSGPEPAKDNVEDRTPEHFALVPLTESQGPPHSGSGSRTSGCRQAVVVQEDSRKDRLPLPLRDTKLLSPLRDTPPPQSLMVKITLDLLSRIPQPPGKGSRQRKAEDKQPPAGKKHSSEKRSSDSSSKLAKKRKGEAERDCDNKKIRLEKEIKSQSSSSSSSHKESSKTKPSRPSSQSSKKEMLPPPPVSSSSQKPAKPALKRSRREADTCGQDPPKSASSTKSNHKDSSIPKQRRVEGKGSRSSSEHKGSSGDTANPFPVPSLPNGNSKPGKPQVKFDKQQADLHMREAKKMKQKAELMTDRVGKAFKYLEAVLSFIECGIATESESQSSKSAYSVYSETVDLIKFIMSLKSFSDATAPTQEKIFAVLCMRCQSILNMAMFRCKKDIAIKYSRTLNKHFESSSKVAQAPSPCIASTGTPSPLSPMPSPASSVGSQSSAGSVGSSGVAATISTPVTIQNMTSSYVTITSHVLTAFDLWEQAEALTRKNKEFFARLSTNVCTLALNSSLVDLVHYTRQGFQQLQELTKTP

[3] = target: T2, FLAG-tagged AFF1 with the C-terminal homology domain deleted (UniProt P51825); assay: as above
T2 sequence: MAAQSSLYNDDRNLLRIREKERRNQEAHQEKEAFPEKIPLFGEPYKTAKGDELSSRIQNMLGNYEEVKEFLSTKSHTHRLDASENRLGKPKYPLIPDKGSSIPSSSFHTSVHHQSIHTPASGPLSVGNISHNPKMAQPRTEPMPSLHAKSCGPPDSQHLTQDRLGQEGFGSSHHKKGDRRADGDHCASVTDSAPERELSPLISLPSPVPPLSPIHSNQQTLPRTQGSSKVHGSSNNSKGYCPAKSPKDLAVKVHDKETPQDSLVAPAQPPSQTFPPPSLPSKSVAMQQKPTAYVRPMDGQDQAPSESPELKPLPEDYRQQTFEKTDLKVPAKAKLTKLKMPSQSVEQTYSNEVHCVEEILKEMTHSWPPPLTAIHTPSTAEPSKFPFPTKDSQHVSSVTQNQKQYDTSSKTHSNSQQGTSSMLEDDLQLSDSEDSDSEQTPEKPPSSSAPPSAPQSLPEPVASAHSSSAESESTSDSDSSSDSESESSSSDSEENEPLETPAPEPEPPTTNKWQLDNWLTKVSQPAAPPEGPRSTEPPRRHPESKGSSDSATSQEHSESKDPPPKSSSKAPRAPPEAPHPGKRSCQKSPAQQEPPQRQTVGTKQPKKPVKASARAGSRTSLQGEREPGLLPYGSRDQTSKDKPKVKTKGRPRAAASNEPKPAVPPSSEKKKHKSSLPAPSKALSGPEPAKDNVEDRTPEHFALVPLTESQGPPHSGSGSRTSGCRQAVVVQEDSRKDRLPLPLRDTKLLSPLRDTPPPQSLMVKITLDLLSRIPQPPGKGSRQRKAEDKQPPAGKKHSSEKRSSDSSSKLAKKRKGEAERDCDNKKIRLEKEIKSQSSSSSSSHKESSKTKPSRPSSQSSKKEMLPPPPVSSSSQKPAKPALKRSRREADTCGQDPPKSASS

[4] = target: T3, FLAG-tagged AFF1 V67M (UniProt P51825); assay: as above
T3 sequence: T1 sequence with V67M

- binding [2]: binds
Molecule: HEXIM1, endogenous (from UniProt O94992 1-359)

- binding [2]: binds
- binding [3]: binds
B1: ELL1, endogenous (protein, UniProt P55199 1-621)
chain: MAALKEDRSYGLSCGRVSDGSKVSVFHVKLTDSALRAFESYRARQDSVSLRPSIRFQGSQGHISIPQPDCPAEARTFSFYLSNIGRDNPQGSFDCIQQYVSSHGEVHLDCLGSIQDKITVCATDDSYQKARQSMAQAEEETRSRSAIVIKAGGRYLGKKVQFRKPAPGATDAVPSRKRATPINLASAIRKSGASAVSGGSGVSQRPFRDRVLHLLALRPYRKAELLLRLQKDGLTQADKDALDGLLQQVANMSAKDGTCTLQDCMYKDVQKDWPGYSEGDQQLLKRVLVRKLCQPQSTGSLLGDPAASSPPGERGRSASPPQKRLQPPDFIDPLANKKPRISHFTQRAQPAVNGKLGVPNGREALLPTPGPPASTDTLSSSTHLPPRLEPPRAHDPLADVSNDLGHSGRDCEHGEAAAPAPTVRLGLPLLTDCAQPSRPHGSPSRSKPKKKSKKHKDKERAAEDKPRAQLPDCAPATHATPGAPADTPGLNGTCSVSSVPTSTSETPDYLLKYAAISSSEQRQSYKNDFNAEYSEYRDLHARIERITRRFTQLDAQLRQLSQGSEEYETTRGQILQEYRKIKKTNTNYSQEKHRCEYLHSKLAHIKRLIAEYDQRQLQAWP

- binding [2]: binds
B2: LARP7, endogenous (protein, UniProt Q4G0J3 1-582)
chain: METESGNQEKVMEEESTEKKKEVEKKKRSRVKQVLADIAKQVDFWFGDANLHKDRFLREQIEKSRDGYVDISLLVSFNKMKKLTTDGKLIARALRSSAVVELDLEGTRIRRKKPLGERPKDEDERTVYVELLPKNVNHSWIERVFGKCGNVVYISIPHYKSTGDPKGFAFVEFETKEQAAKAIEFLNNPPEEAPRKPGIFPKTVKNKPIPALRVVEEKKKKKKKKGRMKKEDNIQAKEENMDTSNTSISKMKRSRPTSEGSDIESTEPQKQCSKKKKKRDRVEASSLPEVRTGKRKRSSSEDAESLAPRSKVKKIIQKDIIKEASEASKENRDIEISTEEEKDTGDLKDSSLLKTKRKHKKKHKERHKMGEEVIPLRVLSKSEWMDLKKEYLALQKASMASLKKTISQIKSESEMETDSGVPQNTGMKNEKTANREECRTQEKVNATGPQFVSGVIVKIISTEPLPGRKQVRDTLAAISEVLYVDLLEGDTECHARFKTPEDAQAVINAYTEINKKHCWKLEILSGDHEQRYWQKILVDRQAKLNQPREKKRGTEKLITKAEKIRLAKTQQASKHIRFSEYD

Second part, the molecule before the results:

Molecule: HIV-1 Tat (from UniProt P04608 1-86)
- binding [1]: binds

Molecule: ELL2, endogenous (from UniProt O00472 1-640)
- binding [2]: binds
- binding [3]: binds

Molecule: CDK9, endogenous (from UniProt P50750 1-372)
- binding [4]: binds
- binding [2]: binds
- binding [3]: binds

B3: ENL, endogenous (protein, UniProt Q03111 1-559)
chain: MDNQCTVQVRLELGHRAQLRKKPTTEGFTHDWMVFVRGPEQCDIQHFVEKVVFWLHDSFPKPRRVCKEPPYKVEESGYAGFIMPIEVHFKNKEEPRKVCFTYDLFLNLEGNPPVNHLRCEKLTFNNPTTEFRYKLLRAGGVMVMPEGADTVSRPSPDYPMLPTIPLSAFSDPKKTKPSHGSKDANKESSKTSKPHKVTKEHRERPRKDSESKSSSKELEREQAKSSKDTSRKLGEGRLPKEEKAPPPKAAFKEPKMALKETKLESTSPKGGPPPPPPPPPRASSKRPATADSPKPSAKKQKKSSSKGSRSAPGTSPRTSSSSSFSDKKPAKDKSSTRGEKVKAESEPREAKKALEVEESNSEDEASFKSESAQSSPSNSSSSSDSSSDSDFEPSQNHSQGPLRSMVEDLQSEESDEDDSSSGEEAAGKTNPGRDSRLSFSDSESDNSADSSLPSREPPPPQKPPPPNSKVSGRRSPESCSKPEKILKKGTYDKAYTDELVELHRRLMALRERNVLQQIVNLIEETGHFNVTNTTFDFDLFSLDETTVRKLQSCLEAVAT
- binding [2]: binds
- binding [3]: binds
